The values that follow come from publication PMC8760648.

The target of experiment [1] is T1, SART3, spliceosome-associated factor 3 (human (endogenous in glioma cells)) (UniProt Q15020).
T1 sequence: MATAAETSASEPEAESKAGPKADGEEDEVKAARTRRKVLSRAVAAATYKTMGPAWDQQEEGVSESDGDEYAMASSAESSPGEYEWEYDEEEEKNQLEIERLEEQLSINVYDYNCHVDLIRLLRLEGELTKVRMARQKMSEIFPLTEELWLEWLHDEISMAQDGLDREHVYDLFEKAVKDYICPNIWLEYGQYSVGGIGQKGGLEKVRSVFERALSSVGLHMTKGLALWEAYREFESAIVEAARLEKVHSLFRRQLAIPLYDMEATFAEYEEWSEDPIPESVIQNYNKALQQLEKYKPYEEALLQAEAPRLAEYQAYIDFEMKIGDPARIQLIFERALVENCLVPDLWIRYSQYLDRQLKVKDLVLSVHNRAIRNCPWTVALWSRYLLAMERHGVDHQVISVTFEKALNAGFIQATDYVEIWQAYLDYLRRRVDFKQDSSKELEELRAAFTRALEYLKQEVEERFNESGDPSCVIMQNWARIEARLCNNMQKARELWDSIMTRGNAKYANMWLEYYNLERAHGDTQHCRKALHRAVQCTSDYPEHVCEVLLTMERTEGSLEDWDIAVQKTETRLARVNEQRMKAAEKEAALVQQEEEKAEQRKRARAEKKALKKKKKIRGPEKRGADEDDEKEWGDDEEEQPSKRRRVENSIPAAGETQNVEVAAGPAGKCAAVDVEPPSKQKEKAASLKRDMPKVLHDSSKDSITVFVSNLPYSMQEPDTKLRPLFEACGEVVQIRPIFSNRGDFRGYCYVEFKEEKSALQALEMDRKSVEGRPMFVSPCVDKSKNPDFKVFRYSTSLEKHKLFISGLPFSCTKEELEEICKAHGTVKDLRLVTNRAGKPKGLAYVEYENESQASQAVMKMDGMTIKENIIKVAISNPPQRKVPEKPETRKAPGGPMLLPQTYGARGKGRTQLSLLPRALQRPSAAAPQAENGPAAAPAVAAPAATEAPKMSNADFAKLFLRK
Put plainly: co-IP; IP with either IgG (control), AGO2, SART3 or PRPF8 antibodies from glioma cells, followed by Western blotting; endogenous proteins. On the technique in general: Immunoblotting shows a protein as a band on a membrane.

Experiment [2] concerns the target Pre-mRNA-processing-splicing factor 8 (PRPF8) (human (endogenous in glioma cells)) (UniProt Q6P2Q9). The experiment is described as above.

These are yes or no findings as the source states them, for the method shown. In cells and extracts the contact can be indirect. Some entries that bind do so weakly or less than the wild type.

For “Argonaute 2 (Ago2) (from UniProt Q9UKV8 1-859)”, the binding entry in experiment [1] and in experiment [2] was “binds” each time.
